The source of these data is patent publication US8889419 (INDIANA UNIVERSITY RESEARCH AND TECHNOLOGY, dated 2014).

Sequences of proteins named here, by UniProt entry; tags and fusion partners are left off. Residues count along the entry.
UniProt P13612, 34-1032, chain 1 of 2: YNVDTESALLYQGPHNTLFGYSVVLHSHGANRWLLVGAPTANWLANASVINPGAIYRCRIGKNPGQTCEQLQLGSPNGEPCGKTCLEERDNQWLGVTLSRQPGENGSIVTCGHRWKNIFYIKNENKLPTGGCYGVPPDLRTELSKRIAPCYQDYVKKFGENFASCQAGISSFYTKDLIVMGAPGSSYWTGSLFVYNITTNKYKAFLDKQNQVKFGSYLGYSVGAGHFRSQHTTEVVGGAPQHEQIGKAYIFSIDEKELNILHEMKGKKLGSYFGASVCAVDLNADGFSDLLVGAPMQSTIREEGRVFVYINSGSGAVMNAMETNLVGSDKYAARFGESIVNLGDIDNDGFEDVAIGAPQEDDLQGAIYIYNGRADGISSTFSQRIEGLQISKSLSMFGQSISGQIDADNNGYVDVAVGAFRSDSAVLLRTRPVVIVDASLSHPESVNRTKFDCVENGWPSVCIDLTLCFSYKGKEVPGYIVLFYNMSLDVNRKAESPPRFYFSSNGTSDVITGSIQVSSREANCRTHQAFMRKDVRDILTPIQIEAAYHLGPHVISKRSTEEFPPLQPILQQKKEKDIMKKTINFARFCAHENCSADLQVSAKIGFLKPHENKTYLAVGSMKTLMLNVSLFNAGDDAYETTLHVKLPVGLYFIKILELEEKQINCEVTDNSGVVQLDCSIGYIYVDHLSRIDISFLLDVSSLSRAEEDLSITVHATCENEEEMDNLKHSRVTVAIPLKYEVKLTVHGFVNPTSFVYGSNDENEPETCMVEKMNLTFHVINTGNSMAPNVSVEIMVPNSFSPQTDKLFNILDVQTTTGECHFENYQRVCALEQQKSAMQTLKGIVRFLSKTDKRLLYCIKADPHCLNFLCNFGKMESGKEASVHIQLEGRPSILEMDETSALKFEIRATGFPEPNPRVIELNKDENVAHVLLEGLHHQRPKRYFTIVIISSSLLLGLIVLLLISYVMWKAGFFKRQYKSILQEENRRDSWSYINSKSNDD

In assay [1] the target is T1, integrin VLA-4 on HL60 cells (UniProt P13612 34-1032; P05556 21-798).
T1 construct: whole, on cells; HL60 cells express VLA-4 but not VLA-5 by flow cytometry; also called CD49d
As to the kind of experiment: adhesion of HL60 cells (VLA-4 positive) to fragment-coated plates.

Assay [2] deals with T1, integrin VLA-4 on HL60 cells. The experiment in a line: adhesion of HL60 cells to fragment-coated plates.

B1: recombinant fibronectin fragment CH-296 (other, human)
chain: PTDLRFTNIGPDTMRVTWAPPPSIDLTNFLVRYSPVKNEEDVAELSISPSDNAVVLTNLLPGTEYVVSVSSVYEQHESTPLRGRQKTGLDSPTGIDFSDITANSFTVHWIAPRATITGYRIRHHPEHFSGRPREDRVPHSRNSITLTNLTPGTEYVVSIVALNGREESPLLIGQQSTVSDVPRDLEVVAATPTSLLISWDAPAVTVRYYRITYGETGGNSPVQEFTVPGSKSTATISGLKPGVDYTITVYAVTGRGDSPASSKPISINYRTEIDKPSMAIPAPTDLKFTQVTPTSLSAQWTPPNVQLTGYRVRVTPKEKTGPMKEINLAPDSSSVVVSGLMVATKYEVSVYALKDTLTSRPAQGVVTTLENVSPPRRARVTDATETTITISWRTKTETITGFQVDAVPANGQTPIQRTIKPDVRSYTITGLQPGTDYKIYLYTLNDNARSSPVVIDASTAIDAPSNLRFLATTPNSLLVSWQPPRARITGYIIKYEKPGSPPREVVPRPRPGVTEATITGLEPGTEYTIYVIALKNNQKSEPLIGRKKTDELPQLVTLPHPNLHGPEILDVPST
In the case of B1, in assay [1], the binding result is recorded as “binds”.

B2: recombinant fibronectin fragment CH-271 (other, human)
chain: PTDLRFTNIGPDTMRVTWAPPPSIDLTNFLVRYSPVKNEEDVAELSISPSDNAVVLTNLLPGTEYVVSVSSVYEQHESTPLRGRQKTGLDSPTGIDFSDITANSFTVHWIAPRATITGYRIRHHPEHFSGRPREDRVPHSRNSITLTNLTPGTEYVVSIVALNGREESPLLIGQQSTVSDVPRDLEVVAATPTSLLISWDAPAVTVRYYRITYGETGGNSPVQEFTVPGSKSTATISGLKPGVDYTITVYAVTGRGDSPASSKPISINYRTEIDKPSMAIPAPTDLKFTQVTPTSLSAQWTPPNVQLTGYRVRVTPKEKTGPMKEINLAPDSSSVVVSGLMVATKYEVSVYALKDTLTSRPAQGVVTTLENVSPPRRARVTDATETTITISWRTKTETITGFQVDAVPANGQTPIQRTIKPDVRSYTITGLQPGTDYKIYLYTLNDNARSSPVVIDASTAIDAPSNLRFLATTPNSLLVSWQPPRARITGYIIKYEKPGSPPREVVPRPRPGVTEATITGLEPGTEYTIYVIALKNNQKSEPLIGRKKT
notes: CBD + HBD, no CS1
As for B2, in assay [2], the binding result is reported as “no binding (tested: 2 µg/cm^2 coating)”.
